{"source": "patent US20090311217A1", "about": "“3-SUBSTITUTED-1H-INDOLE COMPOUNDS, THEIR USE AS MTOR KINASE AND PI3 KINASE INHIBITORS, AND THEIR SYNTHESES” (priority 2008, published 2009)", "origin": "cited, not measured here", "tested_on": "preclinical mouse cancer models", "conditions": "prostrate, breast, ovarian, lung, multiple myeloma, and brain cancers; cited from earlier work", "note": "At least one compound was matched to its structure with a doubt left."}
{"smiles": "N=C(N)NCCC[C@H](NC(=O)CCC(=O)OC[N+]1(c2cc(=O)c3cccc(-c4ccccc4)c3o2)CCOCC1)C(=O)NCC(=O)N[C@@H](CC(=O)O)C(=O)N[C@@H](CO)C(=O)[O-]", "note": "[SF-1126]", "values": [{"measurement": "activity in preclinical mouse cancer models", "value": "active"}]}
